# In publication PMC12084551:
# Results are given in words; binding and its absence hold for the method and conditions named.
# Experiments:
# [1] = target: GAS2ΔC (residues 1–276) (mouse) (UniProt P11862); experiment: SEC; Superdex 75 HR 10/300; 30 mM Tris-HCl pH 8.0, 300 mM KCl, 100 μM ZnCl2, 0.1% β-ME; molecular weight from a calibration with BSA, carbonic anhydrase and cytochrome c; both purified
# [2] = target: GAS2-GARΔC (residues 198–276) (mouse) (UniProt P11862); experiment: as above
binding [1],binding [2],Substance
no binding,,GAS2ΔC (residues 1–276) (from UniProt P11862 1-276) (domain or fragment)
,no binding,GAS2-GARΔC (residues 198–276) (from UniProt P11862 198-276) (domain or fragment)
